Here are results for two molecules from paper PMC9273615, “Regulation of AUXIN RESPONSE FACTOR condensation and nucleo-cytoplasmic partitioning” (Nature Communications, 2022).

Sequences of proteins named here, by UniProt entry; tags and fusion partners are left off.
UniProt Q38825: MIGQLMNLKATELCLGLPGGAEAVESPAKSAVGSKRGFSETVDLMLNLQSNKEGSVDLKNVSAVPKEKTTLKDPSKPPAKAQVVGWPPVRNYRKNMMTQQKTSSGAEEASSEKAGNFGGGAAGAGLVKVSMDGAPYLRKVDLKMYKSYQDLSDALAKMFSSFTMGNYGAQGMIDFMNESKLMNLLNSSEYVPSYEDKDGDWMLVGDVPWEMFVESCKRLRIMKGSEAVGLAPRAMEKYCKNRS

Results are given in words; binding and its absence hold for the method and conditions named. Binding seen in cells or lysates may run through a third protein. Some results given as binding are weak or reduced against the parent protein; the word gives no strength. Tags and fused reporters may be left off the sequences shown.

For assay [1], the target named is T1, GST-AFF1 (AUXIN RESPONSE FACTOR F-BOX1, At3g49150) (Arabidopsis thaliana) (UniProt Q9M3B7).
T1 sequence: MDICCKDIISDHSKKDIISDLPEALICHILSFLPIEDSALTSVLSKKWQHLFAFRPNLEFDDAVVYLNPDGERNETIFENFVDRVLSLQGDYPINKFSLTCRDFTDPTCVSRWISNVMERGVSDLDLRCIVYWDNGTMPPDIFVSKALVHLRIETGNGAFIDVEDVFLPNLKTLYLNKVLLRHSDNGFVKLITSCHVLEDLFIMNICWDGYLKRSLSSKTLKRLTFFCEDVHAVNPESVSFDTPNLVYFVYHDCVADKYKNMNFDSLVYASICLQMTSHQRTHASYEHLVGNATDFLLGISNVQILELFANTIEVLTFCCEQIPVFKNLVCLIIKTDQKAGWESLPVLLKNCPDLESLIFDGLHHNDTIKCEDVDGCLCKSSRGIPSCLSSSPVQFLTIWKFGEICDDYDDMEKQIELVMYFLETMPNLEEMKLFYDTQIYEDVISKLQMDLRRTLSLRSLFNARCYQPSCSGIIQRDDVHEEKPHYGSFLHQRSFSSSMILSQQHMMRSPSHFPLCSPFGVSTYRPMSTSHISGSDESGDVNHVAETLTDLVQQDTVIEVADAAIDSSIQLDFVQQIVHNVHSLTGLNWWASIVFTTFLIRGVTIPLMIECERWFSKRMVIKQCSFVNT
In words: pull-down; 2 μg purified GST fusion immobilised on glutathione agarose, mixed with 1-2 mg total protein of arf19-1 35S:YFP-ARF19 plant lysate, 4 °C, 2 hr; six washes (PBS pH 7.4, 150 mM NaCl, 0.2% Triton X-100); immunoblot with anti-GFP and anti-GST; only the target purified. (In general: In western blotting, separated proteins are transferred to a membrane and probed.)

Assay [2] concerns the target cEYFP-IAA7 (Arabidopsis thaliana) (UniProt Q38825). Nature of the assay: split reporter; BiFC with nEYFP and cEYFP fusions co-infiltrated with the p19 strain into 3-week-old Nicotiana benthamiana leaves, 22 °C, 3 d; confocal microscopy; nuclear marker WPP-mCherry.

B1: YFP-ARF19 (AUXIN RESPONSE FACTOR 19) (protein, UniProt Q8RYC8 1-1086)
chain: MKAPSNGFLPSSNEGEKKPINSQLWHACAGPLVSLPPVGSLVVYFPQGHSEQVAASMQKQTDFIPNYPNLPSKLICLLHSVTLHADTETDEVYAQMTLQPVNKYDREALLASDMGLKLNRQPTEFFCKTLTASDTSTHGGFSVPRRAAEKIFPPLDFSMQPPAQEIVAKDLHDTTWTFRHIYRGQPKRHLLTTGWSVFVSTKRLFAGDSVLFVRDEKSQLMLGIRRANRQTPTLSSSVISSDSMHIGILAAAAHANANSSPFTIFFNPRASPSEFVVPLAKYNKALYAQVSLGMRFRMMFETEDCGVRRYMGTVTGISDLDPVRWKGSQWRNLQVGWDESTAGDRPSRVSIWEIEPVITPFYICPPPFFRPKYPRQPGMPDDELDMENAFKRAMPWMGEDFGMKDAQSSMFPGLSLVQWMSMQQNNPLSGSATPQLPSALSSFNLPNNFASNDPSKLLNFQSPNLSSANSQFNKPNTVNHISQQMQAQPAMVKSQQQQQQQQQQHQHQQQQLQQQQQLQMSQQQVQQQGIYNNGTIAVANQVSCQSPNQPTGFSQSQLQQQSMLPTGAKMTHQNINSMGNKGLSQMTSFAQEMQFQQQLEMHNSSQLLRNQQEQSSLHSLQQNLSQNPQQLQMQQQSSKPSPSQQLQLQLLQKLQQQQQQQSIPPVSSSLQPQLSALQQTQSHQLQQLLSSQNQQPLAHGNNSFPASTFMQPPQIQVSPQQQGQMSNKNLVAAGRSHSGHTDGEAPSCSTSPSANNTGHDNVSPTNFLSRNQQQGQAASVSASDSVFERASNPVQELYTKTESRISQGMMNMKSAGEHFRFKSAVTDQIDVSTAGTTYCPDVVGPVQQQQTFPLPSFGFDGDCQSHHPRNNLAFPGNLEAVTSDPLYSQKDFQNLVPNYGNTPRDIETELSSAAISSQSFGIPSIPFKPGCSNEVGGINDSGIMNGGGLWPNQTQRMRTYTKVQKRGSVGRSIDVTRYSGYDELRHDLARMFGIEGQLEDPLTSDWKLVYTDHENDILLVGDDPWEEFVNCVQNIKILSSVEVQQMSLDGDLAAIPTTNQACSETDSGNAWKVHYEDTSAAASFNR
Consider B1, for which the binding entry in assay [1] is “binds”.

B2: ARF19 as BiFC fusions (nEYFP-ARF19 and cEYFP-ARF19) (protein, UniProt Q8RYC8 1-1086)
chain: MKAPSNGFLPSSNEGEKKPINSQLWHACAGPLVSLPPVGSLVVYFPQGHSEQVAASMQKQTDFIPNYPNLPSKLICLLHSVTLHADTETDEVYAQMTLQPVNKYDREALLASDMGLKLNRQPTEFFCKTLTASDTSTHGGFSVPRRAAEKIFPPLDFSMQPPAQEIVAKDLHDTTWTFRHIYRGQPKRHLLTTGWSVFVSTKRLFAGDSVLFVRDEKSQLMLGIRRANRQTPTLSSSVISSDSMHIGILAAAAHANANSSPFTIFFNPRASPSEFVVPLAKYNKALYAQVSLGMRFRMMFETEDCGVRRYMGTVTGISDLDPVRWKGSQWRNLQVGWDESTAGDRPSRVSIWEIEPVITPFYICPPPFFRPKYPRQPGMPDDELDMENAFKRAMPWMGEDFGMKDAQSSMFPGLSLVQWMSMQQNNPLSGSATPQLPSALSSFNLPNNFASNDPSKLLNFQSPNLSSANSQFNKPNTVNHISQQMQAQPAMVKSQQQQQQQQQQHQHQQQQLQQQQQLQMSQQQVQQQGIYNNGTIAVANQVSCQSPNQPTGFSQSQLQQQSMLPTGAKMTHQNINSMGNKGLSQMTSFAQEMQFQQQLEMHNSSQLLRNQQEQSSLHSLQQNLSQNPQQLQMQQQSSKPSPSQQLQLQLLQKLQQQQQQQSIPPVSSSLQPQLSALQQTQSHQLQQLLSSQNQQPLAHGNNSFPASTFMQPPQIQVSPQQQGQMSNKNLVAAGRSHSGHTDGEAPSCSTSPSANNTGHDNVSPTNFLSRNQQQGQAASVSASDSVFERASNPVQELYTKTESRISQGMMNMKSAGEHFRFKSAVTDQIDVSTAGTTYCPDVVGPVQQQQTFPLPSFGFDGDCQSHHPRNNLAFPGNLEAVTSDPLYSQKDFQNLVPNYGNTPRDIETELSSAAISSQSFGIPSIPFKPGCSNEVGGINDSGIMNGGGLWPNQTQRMRTYTKVQKRGSVGRSIDVTRYSGYDELRHDLARMFGIEGQLEDPLTSDWKLVYTDHENDILLVGDDPWEEFVNCVQNIKILSSVEVQQMSLDGDLAAIPTTNQACSETDSGNAWKVHYEDTSAAASFNR
For B2, the binding result in assay [2] is on record as “binds”.
